These are yes or no findings as the source states them, for the method shown. Binding seen in cells or lysates may run through a third protein. Binding calls can cover weak binding; strength is not graded here. Tags and fused reporters may be left off the sequences shown.

The target in the assay is GFP-fused rat Hap1A (pEGFP-rHap1A) (rat). As to the kind of experiment: co-IP; lysates of neuro-2a cells co-transfected with Bcr-myc and GFP, GFP-Hap1A or GFP-Hap1B; anti-GFP antibody on protein A magnetic beads, overnight at 4 C, 50 mM PIPES pH 6.8, 1 mM EGTA, 1 mM MgSO4; washed with 0.1% NP-40; immunoblot with anti-Bcr and anti-GFP.

B1: myc-tagged mouse Bcr (pCMV6-mBcr-myc, OriGene) (protein, UniProt Q6PAJ1 1-1270)
chain: MVDSVGFAEAWRAQFPDSEPPRMELRSVGDIEQELERCKASIRRLEQEVNQERFRMIYLQTLLAKEKKSYDRQRWGFRRAAQPPDGAAEPRASAPRPPPAPADGADPAPVEESEARPDGEGSPSKGRSASARRPAAAASADRDDRGPPTSVAALRSNFEKIRKGPAQPGSADAEKPFYVNVEFHHERGLVKVNDKEVSDRISSLGSQAMQMERKKSQQSAGQGLGEAPRPHYRGRSSESSCGLDGDYEDAELNPRFLKDNLINANGGNRPPWPPLEYQPYQSIYVGGMMVEGEGKSPLLRSQSTSEQEKRLTWPRRSYSPRSFEDSGGGYTPDCSSNENLTSSEEDFSSGQSSRVSPSPTTYRMFRDKSRSPSQNSQQSFDSSSPPTPQCQKRHRQCQVVVSEATIVGVRKTGQIWPSDGDSTFQGEADSSFGTPPGYGCAADQAEEQRRHQDGLPYIDDSPSSSPHLSSKGRGSLASGALDPTKVSELDLEKGLEMRKWVLSGILASEETYLSHLEALLLPMKPLKAAATTSQPVLTSQQIETIFFKVPELYEIHKEFYDGLFPRVQQWSHQQRVGDLFQKLASQLGVYRAFVDNYGVAMETAEKCCQANAQFAEISENLRARSNKDVKDSTTKNSLETLLYKPVDRVTRSTLVLHDLLKHTPSSHPDHSLLQDALRISQNFLSSINEEITPRRQSMTVKKGEHRQLLKDSFMVELVEGARKLRHIFLFTDLLLCTKLKKQSGGKTQQYDCKWYIPLTDLSFQMVDELEALPNIPLVPDEELDALKIKISQIKSDIQREKRANKGSKVMERLRKKLSEQESLLLLMSPSMAFRVHSRNGKSYTFLISSDYERAEWRESIREQQKKCFKSFSLTSVELQMLTNSCVKLQTVHHIPLTINKEDDESPGLYGFLHVIVHSATGFKQSSNLYCTLEVDSFGYFVNKAKTRVYRDTTEPNWNEEFEIELEGSQTLRILCYEKCYNKMKMTKEDGESADKLMGKGQVQLDPQTLQDRDWQRTVIDMNGIEVKLSVKFTSREFSLKRMPSRKQTGVFGVKIAVVTKRERSKVPYIVRQCVEEIERRGMEEVGIYRVSGVATDIQALKAAFDVNNKDVSVMMSEMDVNAIAGTLKLYFRELPEPLFTDEFYPNFAEGIALSDPVAKESCMLNLLLSLPEANLLTFLFLLDHLKRVAEKETVNKMSLHNLATVFGPTLLRPSEKESKLPANPSQPITMTDSWSLEVMSQVQVLLYFLQLEAIPAPDSKRQSILFSTEV
As to B1, the binding entry is “binds”.
